Measured values taken from US7189693.
No constants are given. Whether binding was seen depends on the method and setting. Some binding calls cover weakened binding; strength is not graded here.

Target: PDGF D C-terminal fragment, the subunit of the p35 dimer (from HEK 293 cells grown with fetal bovine serum) (human)
Experiment: SDS-PAGE of purified protein, non-reducing against reducing conditions, with N-terminal sequencing (homodimer)

binding: binds
Substance: PDGF D C-terminal fragment, the subunit of the p35 dimer (from HEK 293 cells grown with fetal bovine serum) (from UniProt Q5RA73 250-370) (ligand)
